One assay addresses T1, HA-TRAF3IP3 (human) (UniProt Q9Y228).
T1 sequence: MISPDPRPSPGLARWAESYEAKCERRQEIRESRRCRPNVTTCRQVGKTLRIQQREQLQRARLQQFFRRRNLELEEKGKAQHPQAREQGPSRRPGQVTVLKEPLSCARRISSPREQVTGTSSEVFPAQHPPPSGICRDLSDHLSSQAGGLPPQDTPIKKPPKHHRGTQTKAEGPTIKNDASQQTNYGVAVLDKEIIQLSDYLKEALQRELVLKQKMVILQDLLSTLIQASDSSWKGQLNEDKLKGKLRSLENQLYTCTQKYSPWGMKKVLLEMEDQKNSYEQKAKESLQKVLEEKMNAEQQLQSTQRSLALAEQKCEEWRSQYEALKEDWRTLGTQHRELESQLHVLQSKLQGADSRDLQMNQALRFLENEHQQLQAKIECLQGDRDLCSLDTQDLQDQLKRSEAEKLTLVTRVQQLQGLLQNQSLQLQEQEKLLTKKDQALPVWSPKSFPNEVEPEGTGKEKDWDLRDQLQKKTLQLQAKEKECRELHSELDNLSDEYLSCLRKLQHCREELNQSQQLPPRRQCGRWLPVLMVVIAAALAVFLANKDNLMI
The experiment in a line: co-IP; HEK293T co-transfected, 48 h, lysed by ultrasound; IP with anti-HA (Figure 1A) or anti-Myc (Figure 1B) and protein A agarose, 4°C; washed six times with 400 mM NaCl, 1% Triton X-100, 1% SDS; Western blotting. For orientation: In western blotting, separated proteins are transferred to a membrane and probed.

Assay [1] addresses Myc-3C-C147S (Enterovirus 71 (EV71)). The description is as above.

These are yes or no findings as the source states them, for the method shown. Binding seen in cells or lysates may run through a third protein. Binding calls can cover weak binding; strength is not graded here. Where a sequence is shown, tags or fusion partners need not be part of it.

As for “GFP-3C-C147S (Enterovirus 71 (EV71)) (enzyme)”, in the assay with HA-TRAF3IP3 (human), the binding result was “binds”.

B1: HA-TRAF3IP3 (protein, UniProt Q9Y228 1-551)
chain: MISPDPRPSPGLARWAESYEAKCERRQEIRESRRCRPNVTTCRQVGKTLRIQQREQLQRARLQQFFRRRNLELEEKGKAQHPQAREQGPSRRPGQVTVLKEPLSCARRISSPREQVTGTSSEVFPAQHPPPSGICRDLSDHLSSQAGGLPPQDTPIKKPPKHHRGTQTKAEGPTIKNDASQQTNYGVAVLDKEIIQLSDYLKEALQRELVLKQKMVILQDLLSTLIQASDSSWKGQLNEDKLKGKLRSLENQLYTCTQKYSPWGMKKVLLEMEDQKNSYEQKAKESLQKVLEEKMNAEQQLQSTQRSLALAEQKCEEWRSQYEALKEDWRTLGTQHRELESQLHVLQSKLQGADSRDLQMNQALRFLENEHQQLQAKIECLQGDRDLCSLDTQDLQDQLKRSEAEKLTLVTRVQQLQGLLQNQSLQLQEQEKLLTKKDQALPVWSPKSFPNEVEPEGTGKEKDWDLRDQLQKKTLQLQAKEKECRELHSELDNLSDEYLSCLRKLQHCREELNQSQQLPPRRQCGRWLPVLMVVIAAALAVFLANKDNLMI
For the molecule B1, in assay [1], the binding result was “binds”.
